Measurements from the supplement of paper PMC10849652.
This is one part of the list.

By UniProt entry, the sequences of proteins in these tests, tags left out. Where a name states a change or a piece, a line headed by the entry shows the natural chain unless it says otherwise.
UniProt Q8IV38: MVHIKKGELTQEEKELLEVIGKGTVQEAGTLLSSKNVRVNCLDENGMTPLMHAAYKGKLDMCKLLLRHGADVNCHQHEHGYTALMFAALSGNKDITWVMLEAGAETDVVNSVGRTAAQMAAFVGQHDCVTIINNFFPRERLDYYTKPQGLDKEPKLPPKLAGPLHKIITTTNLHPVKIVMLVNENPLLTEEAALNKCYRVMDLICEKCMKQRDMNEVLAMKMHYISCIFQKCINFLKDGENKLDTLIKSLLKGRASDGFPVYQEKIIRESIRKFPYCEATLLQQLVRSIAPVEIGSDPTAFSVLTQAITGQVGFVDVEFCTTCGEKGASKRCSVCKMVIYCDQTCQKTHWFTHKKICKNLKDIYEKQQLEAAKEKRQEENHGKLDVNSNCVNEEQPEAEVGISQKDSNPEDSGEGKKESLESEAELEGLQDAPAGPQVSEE
UniProt Q9Y6B7: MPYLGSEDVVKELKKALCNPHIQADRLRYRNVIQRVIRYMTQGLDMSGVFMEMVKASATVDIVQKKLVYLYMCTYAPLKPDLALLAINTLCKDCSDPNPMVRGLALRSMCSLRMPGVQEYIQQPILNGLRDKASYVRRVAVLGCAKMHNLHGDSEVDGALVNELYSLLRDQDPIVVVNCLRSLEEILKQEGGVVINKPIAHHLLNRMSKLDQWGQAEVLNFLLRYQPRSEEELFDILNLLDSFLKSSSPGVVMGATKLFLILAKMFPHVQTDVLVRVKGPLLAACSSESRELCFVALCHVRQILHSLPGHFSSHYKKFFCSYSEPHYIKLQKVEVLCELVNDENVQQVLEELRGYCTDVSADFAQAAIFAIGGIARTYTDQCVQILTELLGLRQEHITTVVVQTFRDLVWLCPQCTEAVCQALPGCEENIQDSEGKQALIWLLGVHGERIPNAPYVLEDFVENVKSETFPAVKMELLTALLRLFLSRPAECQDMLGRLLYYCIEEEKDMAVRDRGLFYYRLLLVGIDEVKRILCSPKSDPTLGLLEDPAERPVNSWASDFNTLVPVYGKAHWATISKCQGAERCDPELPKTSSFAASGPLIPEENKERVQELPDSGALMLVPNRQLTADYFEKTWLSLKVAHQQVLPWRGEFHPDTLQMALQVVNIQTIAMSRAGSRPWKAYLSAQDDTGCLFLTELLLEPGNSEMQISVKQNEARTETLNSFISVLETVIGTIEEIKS
UniProt O60306: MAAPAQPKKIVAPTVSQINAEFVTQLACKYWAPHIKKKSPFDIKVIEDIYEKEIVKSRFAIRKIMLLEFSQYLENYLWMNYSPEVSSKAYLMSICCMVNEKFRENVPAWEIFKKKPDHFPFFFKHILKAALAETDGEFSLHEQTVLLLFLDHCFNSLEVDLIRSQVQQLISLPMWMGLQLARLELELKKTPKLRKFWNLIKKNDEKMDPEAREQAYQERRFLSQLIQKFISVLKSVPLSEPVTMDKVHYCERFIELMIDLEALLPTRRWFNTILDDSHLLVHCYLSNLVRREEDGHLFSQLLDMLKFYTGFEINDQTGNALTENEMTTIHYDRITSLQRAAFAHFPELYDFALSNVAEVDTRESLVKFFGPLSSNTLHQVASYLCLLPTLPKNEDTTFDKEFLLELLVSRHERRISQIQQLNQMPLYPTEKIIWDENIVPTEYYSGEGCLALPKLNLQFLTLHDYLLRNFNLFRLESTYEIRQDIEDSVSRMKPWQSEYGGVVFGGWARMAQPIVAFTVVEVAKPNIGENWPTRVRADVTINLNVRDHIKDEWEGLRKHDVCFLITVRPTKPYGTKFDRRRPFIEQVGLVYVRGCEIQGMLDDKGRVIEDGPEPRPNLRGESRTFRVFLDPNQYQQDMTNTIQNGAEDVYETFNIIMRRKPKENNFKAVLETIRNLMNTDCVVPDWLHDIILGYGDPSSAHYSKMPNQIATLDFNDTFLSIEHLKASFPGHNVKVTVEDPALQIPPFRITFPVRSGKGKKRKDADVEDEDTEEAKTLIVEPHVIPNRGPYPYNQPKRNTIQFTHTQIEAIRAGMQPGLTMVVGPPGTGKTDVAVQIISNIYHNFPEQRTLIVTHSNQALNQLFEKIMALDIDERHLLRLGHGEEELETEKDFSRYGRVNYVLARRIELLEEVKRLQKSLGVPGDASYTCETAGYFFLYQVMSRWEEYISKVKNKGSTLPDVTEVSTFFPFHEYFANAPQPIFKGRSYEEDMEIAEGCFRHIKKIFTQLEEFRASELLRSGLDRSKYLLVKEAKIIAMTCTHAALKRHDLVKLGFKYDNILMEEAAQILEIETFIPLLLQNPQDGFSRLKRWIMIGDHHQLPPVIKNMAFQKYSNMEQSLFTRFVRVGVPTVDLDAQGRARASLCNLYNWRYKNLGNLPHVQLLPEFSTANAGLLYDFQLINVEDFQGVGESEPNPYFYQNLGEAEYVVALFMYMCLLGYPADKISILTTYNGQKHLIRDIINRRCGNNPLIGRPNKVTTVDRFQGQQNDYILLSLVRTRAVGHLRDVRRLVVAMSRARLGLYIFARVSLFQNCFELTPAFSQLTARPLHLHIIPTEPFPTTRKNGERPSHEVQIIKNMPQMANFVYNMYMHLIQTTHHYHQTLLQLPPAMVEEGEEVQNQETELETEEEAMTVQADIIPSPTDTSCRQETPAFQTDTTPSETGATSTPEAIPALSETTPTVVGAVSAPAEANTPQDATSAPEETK
UniProt Q6UXV4: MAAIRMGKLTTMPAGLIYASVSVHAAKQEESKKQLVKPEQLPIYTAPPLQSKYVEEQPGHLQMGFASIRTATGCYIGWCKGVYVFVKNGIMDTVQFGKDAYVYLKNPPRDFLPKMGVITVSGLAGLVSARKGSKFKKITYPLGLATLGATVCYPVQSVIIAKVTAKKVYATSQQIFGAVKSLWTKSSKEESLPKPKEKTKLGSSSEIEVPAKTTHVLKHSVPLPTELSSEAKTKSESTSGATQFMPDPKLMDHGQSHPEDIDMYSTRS
UniProt Q14155: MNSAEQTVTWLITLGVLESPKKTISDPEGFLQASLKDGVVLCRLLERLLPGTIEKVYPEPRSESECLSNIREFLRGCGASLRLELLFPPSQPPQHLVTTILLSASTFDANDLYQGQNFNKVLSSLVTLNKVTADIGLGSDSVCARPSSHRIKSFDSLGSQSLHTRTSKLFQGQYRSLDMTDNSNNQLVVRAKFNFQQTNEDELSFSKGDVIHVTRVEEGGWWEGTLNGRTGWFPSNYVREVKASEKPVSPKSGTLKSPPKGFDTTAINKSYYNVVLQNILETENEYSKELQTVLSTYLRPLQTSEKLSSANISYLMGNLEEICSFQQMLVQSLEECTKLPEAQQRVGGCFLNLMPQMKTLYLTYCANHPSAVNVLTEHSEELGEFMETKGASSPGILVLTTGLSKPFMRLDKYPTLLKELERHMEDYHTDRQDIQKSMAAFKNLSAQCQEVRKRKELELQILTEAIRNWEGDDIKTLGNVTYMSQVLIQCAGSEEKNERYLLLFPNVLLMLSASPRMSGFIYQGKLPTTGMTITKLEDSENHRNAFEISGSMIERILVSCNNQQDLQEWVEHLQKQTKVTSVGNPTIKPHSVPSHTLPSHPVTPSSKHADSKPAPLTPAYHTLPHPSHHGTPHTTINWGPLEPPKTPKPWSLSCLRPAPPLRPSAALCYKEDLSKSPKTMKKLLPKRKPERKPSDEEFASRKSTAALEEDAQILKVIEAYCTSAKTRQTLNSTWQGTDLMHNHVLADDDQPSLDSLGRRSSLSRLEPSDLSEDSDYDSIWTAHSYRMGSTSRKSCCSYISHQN
UniProt P02647, whole entry, looked up: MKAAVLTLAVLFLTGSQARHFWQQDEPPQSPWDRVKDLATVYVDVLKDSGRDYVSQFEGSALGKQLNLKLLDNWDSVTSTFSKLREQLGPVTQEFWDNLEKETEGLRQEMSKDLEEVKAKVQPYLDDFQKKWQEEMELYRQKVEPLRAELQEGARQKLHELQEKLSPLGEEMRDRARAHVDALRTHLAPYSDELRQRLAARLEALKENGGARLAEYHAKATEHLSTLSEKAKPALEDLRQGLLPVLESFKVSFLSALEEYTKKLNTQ
UniProt Q9HC16: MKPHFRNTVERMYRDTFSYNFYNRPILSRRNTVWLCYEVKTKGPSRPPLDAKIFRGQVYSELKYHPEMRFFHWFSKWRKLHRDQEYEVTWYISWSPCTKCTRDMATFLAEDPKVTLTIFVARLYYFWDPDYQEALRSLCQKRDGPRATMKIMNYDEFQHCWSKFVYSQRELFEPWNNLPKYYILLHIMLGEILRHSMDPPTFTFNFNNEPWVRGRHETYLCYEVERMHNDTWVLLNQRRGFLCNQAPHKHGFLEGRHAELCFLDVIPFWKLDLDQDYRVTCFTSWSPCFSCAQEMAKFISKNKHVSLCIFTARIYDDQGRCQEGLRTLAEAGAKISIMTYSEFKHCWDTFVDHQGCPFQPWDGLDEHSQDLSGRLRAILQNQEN
UniProt P08758: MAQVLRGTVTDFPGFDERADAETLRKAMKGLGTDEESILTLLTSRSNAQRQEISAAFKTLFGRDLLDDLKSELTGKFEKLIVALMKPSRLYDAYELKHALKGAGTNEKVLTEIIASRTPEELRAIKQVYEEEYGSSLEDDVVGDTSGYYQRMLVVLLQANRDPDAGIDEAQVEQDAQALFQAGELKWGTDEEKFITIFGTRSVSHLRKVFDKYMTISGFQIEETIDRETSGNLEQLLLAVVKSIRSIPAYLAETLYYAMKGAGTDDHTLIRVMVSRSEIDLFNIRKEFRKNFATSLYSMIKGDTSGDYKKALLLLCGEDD
UniProt Q9BUR5: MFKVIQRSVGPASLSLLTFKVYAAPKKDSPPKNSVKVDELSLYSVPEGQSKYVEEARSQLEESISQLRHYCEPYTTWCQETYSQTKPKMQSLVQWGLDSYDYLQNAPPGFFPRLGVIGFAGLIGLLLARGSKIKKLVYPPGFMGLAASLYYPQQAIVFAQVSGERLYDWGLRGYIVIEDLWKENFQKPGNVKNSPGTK
UniProt O95445: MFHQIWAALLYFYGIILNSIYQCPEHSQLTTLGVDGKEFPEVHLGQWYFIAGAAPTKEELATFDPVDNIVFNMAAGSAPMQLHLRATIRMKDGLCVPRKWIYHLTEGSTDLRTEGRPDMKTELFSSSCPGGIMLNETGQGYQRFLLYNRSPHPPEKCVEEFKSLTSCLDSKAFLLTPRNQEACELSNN
UniProt Q96P48: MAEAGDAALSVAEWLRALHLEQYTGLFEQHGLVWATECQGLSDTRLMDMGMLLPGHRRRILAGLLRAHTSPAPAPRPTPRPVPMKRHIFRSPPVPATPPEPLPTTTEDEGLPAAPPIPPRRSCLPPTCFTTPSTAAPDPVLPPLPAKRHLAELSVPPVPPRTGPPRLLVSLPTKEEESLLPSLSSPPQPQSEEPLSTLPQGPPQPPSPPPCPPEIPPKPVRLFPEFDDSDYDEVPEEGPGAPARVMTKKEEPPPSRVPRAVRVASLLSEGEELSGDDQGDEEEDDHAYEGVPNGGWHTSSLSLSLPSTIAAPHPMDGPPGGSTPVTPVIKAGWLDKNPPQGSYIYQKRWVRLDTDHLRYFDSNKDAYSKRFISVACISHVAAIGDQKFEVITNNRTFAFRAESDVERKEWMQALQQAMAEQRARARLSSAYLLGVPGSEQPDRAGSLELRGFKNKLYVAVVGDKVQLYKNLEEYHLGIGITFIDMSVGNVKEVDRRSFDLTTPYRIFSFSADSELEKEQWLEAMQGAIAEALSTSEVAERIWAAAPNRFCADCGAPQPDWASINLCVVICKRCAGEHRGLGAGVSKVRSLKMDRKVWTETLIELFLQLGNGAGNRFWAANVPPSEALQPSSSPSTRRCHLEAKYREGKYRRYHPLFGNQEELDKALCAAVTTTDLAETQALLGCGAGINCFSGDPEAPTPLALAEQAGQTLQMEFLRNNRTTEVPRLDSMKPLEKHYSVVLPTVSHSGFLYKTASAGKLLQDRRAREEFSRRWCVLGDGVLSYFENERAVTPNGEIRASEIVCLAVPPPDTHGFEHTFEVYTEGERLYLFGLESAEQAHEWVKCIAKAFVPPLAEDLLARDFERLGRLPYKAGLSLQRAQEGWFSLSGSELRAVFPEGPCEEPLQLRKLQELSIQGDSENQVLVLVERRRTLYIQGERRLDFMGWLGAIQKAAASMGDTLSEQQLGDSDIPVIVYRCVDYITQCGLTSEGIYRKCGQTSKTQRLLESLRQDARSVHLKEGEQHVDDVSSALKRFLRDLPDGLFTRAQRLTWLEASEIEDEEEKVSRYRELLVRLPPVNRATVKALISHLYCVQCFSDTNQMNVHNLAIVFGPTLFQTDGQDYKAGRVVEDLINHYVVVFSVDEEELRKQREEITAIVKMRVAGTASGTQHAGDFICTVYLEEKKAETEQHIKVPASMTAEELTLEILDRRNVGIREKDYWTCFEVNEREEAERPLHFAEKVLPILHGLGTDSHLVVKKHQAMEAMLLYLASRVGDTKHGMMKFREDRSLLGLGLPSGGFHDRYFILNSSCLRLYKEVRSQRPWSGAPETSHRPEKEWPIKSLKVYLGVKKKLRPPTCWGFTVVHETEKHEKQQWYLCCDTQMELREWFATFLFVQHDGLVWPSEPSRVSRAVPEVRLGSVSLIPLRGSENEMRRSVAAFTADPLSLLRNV

Compound: COc1cc(C(=O)O)ccc1NC(=O)[C@@H]1N[C@@H](CC(C)(C)C)[C@](C#N)(c2ccc(Cl)cc2F)[C@H]1c1cccc(Cl)c1F [idasanutlin]
Test: log2 fold change, soluble protein after heating vs DMSO (PISA); higher = thermal stabilisation; K562 cells, 10 uM, 30 min; active = over 0.2 and 3.5 SD of the protein, either way, in both replicates (recomputed)
Method in brief: (§1)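 K562 cells (2×10^6 cells/mL) were treated with 10 μM compound for 30 min, and aliquots were heated for 3 min over 48°C-58°C. Pooled aliquots were extracted in PBS with 0.5% NP-40 at 4°C, and the supernatant after 21,000xg for 90 min was measured by TMTpro 16plex LC-MS/MS with channel sums equalised. Reported thermal stability, relative to control samples and from duplicates, is a log2 fold change.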

log2 fold change, inactive:
ANGPTL3 (UniProt Q9Y5C1) -0.02
AP2B1 isoform 2 (UniProt P63010) -0.019
ANTKMT (UniProt Q9BQD7) 0.036
ANKMY2 (UniProt Q8IV38) -0.039
AP4B1 (UniProt Q9Y6B7) -0.105
AP2A1 (UniProt O95782) 0.027
ANK1 isoform 14 (UniProt P16157) 0.306
AQR (UniProt O60306) 0.02
ARHGAP1 (UniProt Q07960) 0.004
ANKRD13A (UniProt Q8IZ07) -0.018
ANKRD49 (UniProt Q8WVL7) 0.046
APOOL (UniProt Q6UXV4) -0.026
ARID1A (UniProt O14497) 0.119
ARFGEF2 (UniProt Q9Y6D5) -0.101
ARHGEF12 (UniProt Q9NZN5) 0.267
ARHGEF7 isoform 5 (UniProt Q14155) 0.013
ANXA3 (UniProt P12429) -0.058
ARFGAP3 (UniProt Q9NP61) -0.065
APTX (UniProt Q7Z2E3) -0.13
APOA1 (UniProt P02647) -0.309
APMAP (UniProt Q9HDC9) 0.044
APOBR (UniProt Q0VD83) 0.007
APOBEC3G (UniProt Q9HC16) 0.039
AP1B1 (UniProt Q10567) -0.045
APIP (UniProt Q96GX9) -0.061
APOBEC3D (UniProt Q96AK3) 0.318
ANXA5 (UniProt P08758) -0.013
ARFGAP1 (UniProt Q8N6T3) 0.028
APOO (UniProt Q9BUR5) -0.02
ARHGAP6 (UniProt O43182) 0.101
APLP2 (UniProt Q06481) 0.058
APOM (UniProt O95445) 0.155
AP1G1 isoform 2 (UniProt O43747) -0.084
APOB (UniProt P04114) -0.039
ANAPC5 (UniProt Q9UJX4) -0.004
AP2M1 (UniProt C9JTK4) 0.224
ARHGAP12 (UniProt Q8IWW6) -0.067

Compound: COc1cc(Nc2ncc3c(n2)-c2ccc(Cl)cc2C(c2c(F)cccc2OC)=NC3)ccc1C(=O)O [alisertib]
Test: as above
Method in brief: as §1

log2 fold change, inactive:
ANGPTL3 (UniProt Q9Y5C1) -0.033
AP2B1 isoform 2 (UniProt P63010) -0.062
ANKMY2 (UniProt Q8IV38) -0.029
AP2A1 (UniProt O95782) -0.041
ANK1 isoform 14 (UniProt P16157) -0.102
AQR (UniProt O60306) -0.147
ARHGAP1 (UniProt Q07960) -0.011
ANKRD13A (UniProt Q8IZ07) -0.102
ANKRD49 (UniProt Q8WVL7) -0.051
APOOL (UniProt Q6UXV4) -0.061
ARID1A (UniProt O14497) -0.119
ARFGEF2 (UniProt Q9Y6D5) -0.032
ARHGEF12 (UniProt Q9NZN5) 0.14
ARHGEF7 isoform 5 (UniProt Q14155) -0.05
ARAP1 (UniProt Q96P48) -0.037
ANXA3 (UniProt P12429) -0.007
ARFGAP3 (UniProt Q9NP61) -0.021
APOA1 (UniProt P02647) -0.026
APMAP (UniProt Q9HDC9) -0.06
APOBR (UniProt Q0VD83) -0.067
APOBEC3G (UniProt Q9HC16) -0.092
AP1B1 (UniProt Q10567) -0.041
APIP (UniProt Q96GX9) -0.005
APOBEC3D (UniProt Q96AK3) -0.07
AP5M1 (UniProt Q9H0R1) -0.053
ANXA5 (UniProt P08758) -0.006
ARFGAP1 (UniProt Q8N6T3) 0.047
APOO (UniProt Q9BUR5) -0.111
ARHGAP6 (UniProt O43182) -0.022
APLP2 (UniProt Q06481) -0.039
APOM (UniProt O95445) -0.042
AP1G1 isoform 2 (UniProt O43747) -0.043
APOB (UniProt P04114) 0
ANAPC5 (UniProt Q9UJX4) -0.06
AP2M1 (UniProt C9JTK4) -0.177
ARHGAP12 (UniProt Q8IWW6) -0.023
